System: Mycobacterium tuberculosis
Assay: Antibacterial activity against Mycobacterium tuberculosis H37Rv by broth microdilution method
Assay type: functional

SMILES: CO[C@H]1/C=C/O[C@@]2(C)Oc3c(C)c(O)c4c(O)c(c(/C=N/N5CCN(C)CC5)c(O)c4c3C2=O)NC(=O)/C(C)=C\C=C\[C@H](C)[C@H](O)[C@@H](C)[C@@H](O)[C@@H](C)[C@H](OC(C)=O)[C@@H]1C [RIFAMPIN]
- MIC: ≤ 0.64 µg/mL

From ChEMBL document CHEMBL4477198, “Metabolites from the Fungal Endophyte Aspergillus austroafricanus in Axenic Culture and in Fungal-Bacterial Mixed Cultures” (J Nat Prod, 2016)
